Test results from patent publication US20230312737A1 (REGENTS OF THE UNIVERSITY OF MINNESOTA, published 2023).

Chains of the proteins cited; added tags and fusions are not shown. Residues count along the entry.
UniProt O00220, 24-239: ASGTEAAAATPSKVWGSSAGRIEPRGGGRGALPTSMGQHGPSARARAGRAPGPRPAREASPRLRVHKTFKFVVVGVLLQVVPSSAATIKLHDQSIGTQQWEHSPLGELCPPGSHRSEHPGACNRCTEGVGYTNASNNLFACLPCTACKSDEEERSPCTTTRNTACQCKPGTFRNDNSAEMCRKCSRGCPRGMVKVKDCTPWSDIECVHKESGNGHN

Legend:
[1] = molecular target: death receptor 5 (DR5), endogenous on Jurkat and Huh-7 cells (human, UniProt O14763 56-440); assay: cell-based or functional assay
[2] = molecular target: T1, DR5ΔCD-GFP (long isoform of DR5 with the cytoplasmic domain replaced by green fluorescent protein) (human, UniProt O14763 56-240); assay: flow cytometry titration of soluble His-tagged affibody on HEK293 cells stably expressing DR5ΔCD-GFP, 1:1 binding model
T1 construct: Stably expressed on HEK293 cells for flow cytometry, microscopy and FRET; Residues 1-240 are the cDNA limits; no signal peptide cleavage site is stated; also called DR5-GFP; DR5ΔCD-GFP (donor)

Soluble-DR4-Fc = molecular target: T2, Soluble-DR4-Fc (UniProt O00220 24-239); assay: pull-down: ABYDR5-6 (200 nM) on anti-His beads with soluble DR4-Fc, Western blot
T2 construct: Bought from Abcam (ab220558); not shown: Fc part of the bought product; not described

B1: ABYDR5-6 (designed binder)
chain: AEAKYAKEDYLAVVEIVGLPNLTLGQTLAFIFALGDDPSQSSELLSEAKKLNDSQAPKHHHHHH
notes: Soluble protein made in E. coli from a pET vector (NheI/BamHI cloning) with a C-terminal His6 tag; also called soluble ABYDR5-6
- IC50, inhibition of TRAIL-induced apoptosis (MTT assay, Jurkat cells, TRAIL 0.1 µg/mL) [1]: 0.015 µM
- IC50, inhibition of TRAIL-induced caspase-8 activation (Jurkat cells) [1]: 0.16 µM
- Kd [2]: 0.094 µM
- binding result (Soluble-DR4-Fc): no binding (tested: 100 nM)
